# Assay results: ChEMBL document CHEMBL4513139, “CO-ADD screening of University of Strathclyde (UK) compounds”
# Some of the results follow. Results with a measured potency or affinity are listed apart.
# System: Acinetobacter baumannii
# Conditions: Concentration 32 ug.mL-1; ASSAY_TEST Inhibition of Bacterial Growth; detection method Absorption (OD600); MEDIA CAMHB; plate type 384well; NBS; CORNING #3640; time 18 hr
row,SMILES,Inhibition
1,Cc1ncc(CNc2ccc(C(C)(C)C)cc2)c(N)n1,17%
2,CC(C)CCc1sc(NC(=O)c2cc(NC(=O)c3cc(NC(=O)CCC(=O)O)cn3C)cn2C)nc1C(=O)NCCCN(C)C.O=C(O)C(F)(F)F,-3.32%
3,Cc1ncc(CNc2ccc(F)cc2)c(N)n1,2.07%
4,Cc1ncc(CNc2ccc(Cl)cc2)c(N)n1,7.56%
5,CC(C)CCc1sc(NC(=O)c2cc(NC(=O)c3ccc(/C=C/c4cc5ccccc5nc4On4nnc5ccccc54)cc3)cn2C)nc1C(=O)NCCN1CCOCC1.O=C(O)C(F)(F)F,11.1%
6,COC(=O)CCC(=O)Nc1cc(C(=O)Nc2cc(C(=O)NCCCN(C)C)n(C)c2)n(C)c1.O=C(O)C(F)(F)F,12.86%
7,CN(C)CCCNC(=O)c1cc(NC(=O)c2cc(NC(=O)CCC(=O)O)cn2C)cn1C.O=C(O)C(F)(F)F,14.21%
8,Cn1cc(NC(=O)c2cc(NC(=O)c3sc(N)nc3C(F)(F)F)cn2C)cc1C(=O)NCCN1CCOCC1.O=C(O)C(F)(F)F,8.06%
9,COCCOC1CCN(C(=O)c2cc(NC(=O)c3cc(NC(=O)c4ccc(/C=C/c5ccc(OC)cc5)cc4)cn3C)cn2C)CC1.O=S(=O)(O)O,5.25%
10,Cn1cc(NC(=O)c2cc(NC(=O)c3ccc(/C=C/c4cccc(F)c4)cc3)cn2C)cc1C(=O)NCCN1CCOCC1.O=C(O)C(F)(F)F,5.74%
11,CC(C)c1sc(N)nc1C(=O)Nc1cc(C(=O)Nc2cc(C(=O)NCCN3CCOCC3)n(C)c2)n(C)c1.O=C(O)C(F)(F)F,-4.64%
12,COc1cccc(C(=N)Nc2cc(C(=O)Nc3cc(C(=O)Nc4cn(CCCN(C)C)cn4)n(C)c3)n(C)c2)c1.O=C(O)C(F)(F)F.O=C(O)C(F)(F)F,13.2%
13,COC(=O)c1ccc(C(=O)Nc2cc(C(=O)Nc3cc(C(=O)NCCC(=N)N)n(C)c3)n(C)c2)cc1.O=C(O)C(F)(F)F,16.58%
14,Cc1ncc(Cn2cc(CCCO)nn2)c(N)n1,11%
15,Cc1ncc(CNc2ccc(C(F)(F)F)cc2)c(N)n1,11.1%
16,COC(=O)c1ccc(C(=O)Nc2cc(C(=O)Nc3cc(C(=O)NCCN4CCOCC4)n(C)c3)n(C)c2)cc1.O=C(O)C(F)(F)F,20.48%
17,CN(C)CCCNC(=O)c1cc(NC(=O)c2cc(NC(=O)c3ccc(C(=O)O)cc3)cn2C)cn1C.O=C(O)C(F)(F)F,12.13%
18,CC(=O)Nc1cc(C(=O)Nc2cc(C(=O)Nc3cc(C(=O)NCCCN(C)C)n(CCC(C)C)c3)n(C)c2)n(C)c1.O=C(O)C(F)(F)F,-7.31%
19,CC(C)CCc1sc(NC(=O)c2cc(NC(=O)c3cc(NC(=O)c4ccc(C(=O)O)cc4)cn3C)cn2C)nc1C(=O)NCCCN(C)C.O=C(O)C(F)(F)F,4.95%
20,CC(C)n1cc(NC(=O)c2cc(NC(=O)c3cc(NC=O)cn3C(C)C)cn2C)cc1C(=O)NCCCN(C)C.O=C(O)C(F)(F)F,5.76%

row,SMILES,Inhibition
1,CCOC(=O)c1cc(NC(=O)c2cc(NC(=O)c3sc(N)nc3C(F)(F)F)cn2C)cn1C,9.83%
2,COc1cccc(C(=N)Nc2cc(C(=O)Nc3cc(C(=O)NCCC(=N)N)n(C)c3)n(C)c2)c1.O=C(O)C(F)(F)F.O=C(O)C(F)(F)F,3.2%
3,Cc1ncc(Cn2cc(CO)nn2)c(N)n1,8.41%
4,Cn1cc(NC(=O)c2cc(NC(=O)c3sc(N)nc3C(F)(F)F)cn2C)cc1C(=O)NCCC(=N)N.O=C(O)C(F)(F)F,1.67%
5,COC(=O)CCC(=O)Nc1cc(C(=O)Nc2cc(C(=O)NCCC(=N)N)n(C)c2)n(C)c1.O=C(O)C(F)(F)F,16.06%
6,CC(C)c1sc(N)nc1C(=O)Nc1cc(C(=O)NCCN2CCOCC2)n(C)c1.O=C(O)C(F)(F)F,5.27%
7,Cc1ncc(Cn2cc(CCCCO)nn2)c(N)n1,0.74%
8,CC(C)CCc1sc(N)nc1C(=O)Nc1cc(C(=O)Nc2cc(C(=O)NCCN3CCOCC3)n(C)c2)n(C)c1.O=C(O)C(F)(F)F,10.41%
9,CN(C)CCCNC(=O)c1cc(NC(=O)c2cc(NC(=O)c3cc(NC(=N)N)cn3C)cn2C)cn1C.O=C(O)C(F)(F)F.O=C(O)C(F)(F)F,15.1%
10,Cc1ncc(Cn2cc(CCO)nn2)c(N)n1,8.75%
11,Cn1cc(NC(=O)c2cc(NC(=O)c3cc(NC(=O)c4ccc(Cl)cc4Cl)cn3C)cn2C)cc1C(=O)NCCN1CCOCC1.O=C(O)C(F)(F)F,1.34%
12,CCOC(=O)c1cc(NC(=O)c2cc(NC(=O)c3nc(N)sc3CCC(C)C)cn2C)cn1C,-4%
13,Cc1ccc(S(=O)(=O)NCCc2cn(Cc3cnc(C)nc3N)nn2)cc1,11.44%
14,CC(C)CCc1sc(NC(=O)c2cc(NC(=O)c3ccc(/C=C/c4cc5ccccc5nc4Cl)cc3)cn2C)nc1C(=O)NCCN1CCOCC1.O=C(O)C(F)(F)F,-1.23%
15,COc1cccc(C(=O)Nc2cc(C(=O)Nc3cc(C(=O)Nc4cn(CCCN(C)C)cn4)n(C)c3)n(C)c2)c1.O=C(O)C(F)(F)F,12.51%
16,CN(C)CCCNC(=O)c1cc(NC(=O)c2cc(NC(=O)c3cc(NC(=N)c4ccccc4)cn3C)cn2C)cn1C.O=C(O)C(F)(F)F.O=C(O)C(F)(F)F,12.1%
17,COc1cccc(C(=N)Nc2cc(C(=O)Nc3cc(C(=O)Nc4cc(C(=O)NCCCN5CCOCC5)n(C)c4)n(C)c3)n(C)c2)c1.O=C(O)C(F)(F)F.O=C(O)C(F)(F)F,9.48%
18,Cc1ncc(Cn2cc(CC(N)C(=O)O)nn2)c(N)n1.Cl (centres undefined),4.28%
19,COC(=O)c1ccc(C(=O)Nc2cc(C(=O)Nc3cc(C(=O)NCCCN(C)C)n(C)c3)n(C)c2)cc1.O=C(O)C(F)(F)F,12.64%
20,Cc1ncc(CNc2cccc(F)c2)c(N)n1,11.7%

# A different layout for some results above:
row	SMILES	Inhibition
9	COCCOC1CCN(C(=O)c2cc(NC(=O)c3cc(NC(=O)c4ccc(/C=C/c5ccc(OC)cc5)cc4)cn3C)cn2C)CC1.O=S(=O)(O)O	5.25%
10	Cn1cc(NC(=O)c2cc(NC(=O)c3ccc(/C=C/c4cccc(F)c4)cc3)cn2C)cc1C(=O)NCCN1CCOCC1.O=C(O)C(F)(F)F	5.74%

# Reformatted: 2 of the compounds above.
row | SMILES | Inhibition
10 | Cc1ncc(Cn2cc(CCO)nn2)c(N)n1 | 8.75%
11 | Cn1cc(NC(=O)c2cc(NC(=O)c3cc(NC(=O)c4ccc(Cl)cc4Cl)cn3C)cn2C)cc1C(=O)NCCN1CCOCC1.O=C(O)C(F)(F)F | 1.34%

# Going on with the list:

row,SMILES,Inhibition
1,COc1cccc(/C=C/c2ccc(C(=O)Nc3cc(C(=O)Nc4cc(C(=O)NCCN(C)C)n(C)c4)n(C)c3)cc2)c1.O=C(O)C(F)(F)F,2.16%
2,COc1ccc(CC(=O)Nc2cc(C(=O)Nc3cc(C(=O)Nc4cn(CCCN(C)C)cn4)n(C)c3)n(C)c2)cc1.O=C(O)C(F)(F)F,13.94%
3,Cn1cc(NC(=O)c2cc(NC(=O)CCC(=O)O)cn2C)cc1C(=O)NCCN1CCOCC1.O=C(O)C(F)(F)F,20.05%
4,CC(C)CCn1cc(NC(=O)c2cc(NC(=O)c3cc(NC(=N)c4ccccc4)cn3C)cn2C)cc1C(=O)NCCCN(C)C.O=C(O)C(F)(F)F.O=C(O)C(F)(F)F,3.8%
5,COCCOC1CCN(C(=O)c2cc(NC(=O)c3cc(NC(=O)c4ccc(/C=C/c5cnc6ccccc6c5)cc4)cn3C)cn2C)CC1,8.98%
6,Cc1ncc(Cn2cc(CCCN)nn2)c(N)n1.Cl,9.36%
7,CC(C)c1sc(NC(=O)c2cc(NC(=O)c3cc(NC(=O)c4cnc(Cl)c(Cl)c4)cn3C)cn2C)nc1C(=O)NCCCN(C)C.O=C(O)C(F)(F)F,1.37%
8,CC(=N)Nc1cc(C(=O)Nc2cc(C(=O)Nc3cc(C(=O)NCCN4CCOCC4)n(C)c3)n(C)c2)n(C)c1.O=C(O)C(F)(F)F.O=C(O)C(F)(F)F,12.92%
9,Cc1ncc(Cn2cc(CCC(=O)O)nn2)c(N)n1.O=C(O)C(F)(F)F,6.53%
10,CCOC(=O)CCC(NC(=O)c1ccc(NCc2cn(Cc3cnc(C)nc3N)nn2)cc1)C(=O)OCC (centres undefined),10.67%
11,CN(C)CCCNC(=O)c1cc(NC(=O)c2cc(NC(=O)c3cc4ccccc4cn3)cn2C)cn1C.O=C(O)C(F)(F)F,14.38%
12,Cc1ncc(CNc2ccccc2F)c(N)n1,1.69%
13,CCOC(=O)c1cc(NC(=O)c2cc(NC(=O)c3nc(N)sc3C(C)C)cn2C)cn1C,2.73%
14,CC(=O)N(C(C)=O)c1cc(C(=O)Nc2cc(C(=O)NCCC(=N)N)n(C)c2)n(C)c1.O=C(O)C(F)(F)F,5.84%
15,Cc1ncc(CO)c(N)n1,-2.97%
16,COC(=O)CCC(=O)Nc1cc(C(=O)Nc2cc(C(=O)NCCN3CCOCC3)n(C)c2)n(C)c1.O=C(O)C(F)(F)F,8.35%
17,COc1ccc(/C=C(/C(=O)Nc2cc(C(=O)Nc3cc(C(=O)NCCCN(C)C)n(C)c3)n(C)c2)c2ccc(OC)cc2)cc1.O=C(O)C(F)(F)F,0.8%
18,COc1cccc(C(=N)Nc2cc(C(=O)Nc3cc(C(=O)Nc4cc(C(=O)NCCCN(C)C)n(C)c4)n(C)c3)n(C)c2)c1.O=C(O)C(F)(F)F.O=C(O)C(F)(F)F,18.12%
19,CC(=O)Nc1cc(C(=O)Nc2cc(C(=O)Nc3cc(C(=O)NCCCN(C)C)n(C)c3)n(C)c2)n(C)c1.O=C(O)C(F)(F)F,7.38%
